PubChem BioAssay AID540256 (National Center for Advancing Translational Sciences (NCATS), 2011)
Screen size: about 300,000 compounds; about 3,700 (1.2%) were called active. The inconclusive results got no clear call from the source; some entries with a clear call stand among them for comparison. Calls come from the whole dose curve; tested in HEK293 cells. A potency beside an inconclusive call is a rough fit, not a confirmed value.

Experiment: qHTS for Inhibitors of binding or entry into cells for Lassa Virus; note: nearly all actives have a fitted effect of over 50% in size
Conditions: Lassa virus pseudotype entry inhibition, cell reporter; series mostly up to 37.9 µM
Potency is the fitted concentration of half-maximal effect.

| Structure (SMILES) | Potency |
| --- | --- |
| COc1ccccc1Nc1nnc(SCc2cc(=O)n3cc(C)ccc3n2)s1 | inconclusive: 35.5 µM [inhibitor, single point] |
| COc1cccc(NC(=O)CSc2nc3c([nH]c4ccccc43)c(=O)n2-c2cccc(Cl)c2)c1 | inconclusive: 35.5 µM [inhibitor, single point] |
| COCCN(C(=O)CCC(=O)Nc1cc(C)on1)C(C(=O)NC1CCCC1)c1ccc(C(C)C)cc1 (configuration not stated) | inconclusive: 22.4 µM [inhibitor, single point] |
| CCc1nn2cc(C(=O)c3cc(Cl)ccc3O)cnc2c1-c1ccc(F)cc1 | inconclusive: 35.5 µM [inhibitor, single point] |
| Fc1cccc(Cl)c1Cn1nnc(-c2ccc3c(c2)OCO3)n1 | inconclusive: 0.891 µM [activator, partial curve, poor fit] |
| CCOC(=O)c1c(C)[nH]c(C(=O)COC(=O)CNC(=O)c2ccccc2Cl)c1C | inactive |
| COCCNC(=S)NNc1ccccc1[N+](=O)[O-] | inconclusive: 35.5 µM [activator, single point] |
| CC(=O)CC(C)(C)Nc1nc2ccc([N+](=O)[O-])cc2o1 | inactive |
| COc1cc(C(=O)Nc2nccs2)c(Br)c(OC)c1OC | inactive |
| Cc1cc(NC(=O)CCC2CCCCC2)no1 | inconclusive: 2.31 µM [activator, single point] |
| CCOC(=O)c1c(NC(=O)COc2cccc(C)c2C)sc2c1CCCCC2 | inactive |
| COc1ccc(-c2cn3nc(N4CCC(C(=O)NCc5ccc(F)cc5)CC4)sc3n2)cc1 | inconclusive: 3.16 µM [activator, full curve] |
| CCOC(=O)N1CCN(C(=O)c2ccc3c(=O)n(Cc4ccc(OC)cc4)c(=S)[nH]c3c2)CC1 | inconclusive: 1.26 µM [inhibitor, partial curve, poor fit] |
| CCN(CC)CCCN(C(=O)c1ccc(OC)cc1)c1nc(-c2ccc(OC)cc2)cs1 | inconclusive: 14.1 µM [inhibitor, partial curve, poor fit] |
| CCC(C(=O)Nc1cc(Cl)c(OC)cc1OC)c1ccccc1 (configuration not stated) | inconclusive: 20 µM [inhibitor, partial curve, poor fit] |
| C/C(N)=C(/C#N)C(=O)COC(=O)C1CCC(C(C)(C)C)CC1 (configuration not stated) | inconclusive: 10 µM [inhibitor, partial curve, poor fit] |
| Cc1ccnn1CC(=O)N/N=C/c1c[nH]c2ccccc12 | inactive |
| O=C1c2ccccc2-c2onc3c(N4CCN(CCO)CC4)cc(N4CCN(C(=O)c5ccco5)CC4)c1c23 | inconclusive: 22.4 µM [inhibitor, single point] |
| CCOC(=O)C1(CCCc2ccccc2)CCN(C(=O)CCc2cnccn2)CC1 | inconclusive: 35.5 µM [inhibitor, single point] |
| O=C(Nc1nc(-c2ccccc2)cs1)C1CCCN(S(=O)(=O)c2cccc([N+](=O)[O-])c2)C1 (configuration not stated) | inconclusive: 23.1 µM [inhibitor, single point] |
| CN1C(=O)/C(=C/c2cccc([N+](=O)[O-])c2)C(=O)N1c1ccccc1 | inconclusive: 1.26 µM [activator, partial curve, poor fit] |
| COc1cc(OC)c(NC(=O)c2cnn(-c3cccc(Cl)c3C)c2C2CCN(C(=O)OC(C)(C)C)CC2)cc1Cl | inconclusive: 4.47 µM [activator, full curve, poor fit] |
| N/C(=N\OC(=O)c1ccc(=O)n(Cc2ccccc2)c1)c1ccccn1 | inconclusive: 11.2 µM [inhibitor, single point] |

| Structure (SMILES) | Potency |
| --- | --- |
| COc1ccc(NC(=O)Nc2ccncc2)c(OC)c1 | inactive |
| CCCCn1c(SCC(=O)Nc2cccc(OC)c2)nc2ccsc2c1=O | inactive |
| Cc1ccc(NC(=O)c2cn(-c3ccccc3)nc2-c2ccccc2)cc1 | inconclusive: 6.31 µM [activator, single point] |
| COc1ccc(Nc2ncnc3onc(-c4ccc(Cl)cc4)c23)cc1Cl | active: 12.6 µM |
| Cc1c(CCC(=O)NCCCn2ccnc2)c(=O)oc2c(C)c3occ(C(C)(C)C)c3cc12 | inconclusive: 22.4 µM [inhibitor, single point] |
| Cc1cc(NS(=O)(=O)c2ccc(Br)s2)no1 | inconclusive: 0.184 µM [activator, full curve, poor fit] |
| Cc1c(C(=O)OC(C)C)sc(N)c1C(=O)OC(C)C | inconclusive: 6.51 µM [inhibitor, partial curve] |
| Cc1ccc(OCC(=O)N/N=C/c2ccncc2)cc1 | inactive |
| CCOC(=O)C1(c2ccccc2)CCN(CCC(=O)Nc2cccc(Br)c2)CC1 | active: 12.6 µM |
| COc1ccc(N(CC(=O)Nc2cccc(N(C)S(C)(=O)=O)c2)S(=O)(=O)c2ccccc2)cc1Cl | inactive |
| Cc1n(Cc2ccccc2)c2ccccc2[n+]1Cc1ccccc1 | inconclusive: 14.1 µM [inhibitor, single point] |
| O=C(COC(=O)c1ccc([N+](=O)[O-])o1)NC1CCCCC1 | inactive |
| O=C(c1cc(-c2ccncc2)nc2ccccc12)N1CCOCC1 | inconclusive: 4.47 µM [activator, single point] |
| COc1ccc(NC(=O)c2ccco2)cc1NC(=O)C(C)Oc1ccc(Cl)cc1Cl (configuration not stated) | inconclusive: 3.16 µM [inhibitor, full curve] |
| CCOc1ccc(CCNC(=O)CN2C(=O)c3cccnc3Oc3ccc(C)cc32)cc1OCC | inactive |
| O=C(NCCNC(=O)c1cc(OCC(F)(F)F)ccc1OCC(F)(F)F)Nc1ccc(Cl)cc1 | inconclusive: 23.1 µM [activator, single point] |
| O=C(COc1ccc(Cl)cc1Cl)Nc1ccc(Cl)cn1 | inconclusive: 3.66 µM [inhibitor, full curve, poor fit] |
| CCCOc1ccc(/C=C/C(=O)Nc2sc3c(c2C(=O)OCC)CCC(C)C3)cc1OC (configuration not stated) | inactive |
| CCn1c(C)c(C2=CCN(S(=O)(=O)c3ccc(C)cc3)CC2)c2ccccc21 | inconclusive: 17.8 µM [inhibitor, single point] |
| O=C1c2cnc3nc(SCc4cccc(Cl)c4)nn3c2CC2c3ccccc3CCN12 (configuration not stated) | inactive |
| O=C(Nc1ccc(F)cc1F)c1noc2c1CCC2 | inconclusive: 2.31 µM [activator, full curve, poor fit] |
| CCn1cc(C(=O)O)c(=O)c2cc(F)c(N/N=C/c3ccccc3[N+](=O)[O-])cc21 | inconclusive: 0.501 µM [activator, full curve, poor fit] |
| O=C(COC(=O)/C=C/c1ccc(F)cc1)NC1CCS(=O)(=O)C1 (configuration not stated) | inactive |

| Structure (SMILES) | Potency |
| --- | --- |
| CC(Sc1ncnc2sc(-c3ccccc3)cc12)C(=O)NCC1CCCO1 (configuration not stated) | inconclusive: 22.4 µM [inhibitor, single point] |
| O=C(Nc1nc(-c2ccc(Cl)s2)cs1)c1cccs1 | inconclusive: 10.3 µM [inhibitor, partial curve, poor fit] |
| COc1ccc(OC)c(-c2cc(C(=O)Nc3c(C)nn(Cc4ccc(Cl)cc4)c3C)no2)c1 | inconclusive: 29.1 µM [inhibitor, single point] |
| O=C(NN=Cc1ccc(N(CCCl)CCCl)cc1)c1cc(=O)[nH]c(=O)[nH]1 | inconclusive: 2.24 µM [inhibitor, full curve, poor fit] |
| N/C(=N\OC(=O)c1ccc(Cl)cc1Cl)c1ccccc1 | active: 8.2 µM |
| O=C1C2C3C=CC(C3=C3CCCCC3)C2C(=O)N1c1ccccc1 (configuration not stated) | inactive |
| Cc1ccc2onc(CC(=O)N3CCN(c4ccccc4F)CC3)c2c1 | inconclusive: 5.01 µM [inhibitor, full curve, poor fit] |
| Cc1oc2ccc(O)c(CN3CCOCC3)c2c1C(=O)Nc1ccc(C(C)C)cc1 | inconclusive: 11.2 µM [inhibitor, partial curve] |
| C=CCn1cc(C(=O)NCCCOCC)c(=O)c2cc(S(=O)(=O)N(CC)CC)ccc21 | active: 6.51 µM |
| O=C(CCCn1c(=O)c2cccn2c2ccccc21)Nc1cccc(Cl)c1 | inconclusive: 3.55 µM [inhibitor, partial curve, poor fit] |
| COc1ccc([C@H]2C[C@@H](O)[C@H](n3cc(COC(=O)c4ccccc4)nn3)CN2Cc2cccs2)cc1 | inconclusive: 0.887 µM [inhibitor, full curve, poor fit] |
| CNc1ccc(OC)cc1-n1cnc(-c2ccc([N+](=O)[O-])cc2)c1 | inactive |
| Cn1ncc2c(NCCc3ccccc3)nc(Cl)nc21 | inactive |
| Cc1ccc2oc(-c3cccc(NC(=O)c4cccc5c(Br)cccc45)c3)nc2c1 | inconclusive: 10 µM [activator, partial curve, poor fit] |
| Cc1nc(NC(=O)COC(=O)C2=NNC(=O)CC2)c(Cl)cc1Cl | inconclusive: 6.31 µM [inhibitor, single point] |
| O=C(Nc1ccc(Cl)cc1C(=O)NCC1CCCO1)c1ccc(Cl)cc1Cl (configuration not stated) | inconclusive: 14.1 µM [inhibitor, single point] |
| CC(=O)c1cccc(NC(=O)c2c(-c3c(F)cccc3Cl)noc2C)c1 | inconclusive: 0.0891 µM [inhibitor, full curve, poor fit] |
| CN(C)c1ccc(/C=C(/C#N)C(=O)NCc2ccccc2)o1 | inactive |
| CC1CC1c1ccc(/C=C(\C#N)C(=O)Nc2ccccc2Cl)o1 (configuration not stated) | inactive |
| O=C(CN1CCCCCCC1)N/N=C/c1ccc([N+](=O)[O-])o1 | inconclusive: 35.5 µM [inhibitor, single point] |
| O=C(NC(C(=O)c1ccccc1)n1ccc(=O)[nH]c1=O)c1ccccc1 (configuration not stated) | inactive |

In another format: results already given.
Structure (SMILES),Potency
CNc1ccc(OC)cc1-n1cnc(-c2ccc([N+](=O)[O-])cc2)c1,inactive
Cn1ncc2c(NCCc3ccccc3)nc(Cl)nc21,inactive
Cc1ccc2oc(-c3cccc(NC(=O)c4cccc5c(Br)cccc45)c3)nc2c1,"inconclusive: 10 µM [activator, partial curve, poor fit]"
Cc1nc(NC(=O)COC(=O)C2=NNC(=O)CC2)c(Cl)cc1Cl,"inconclusive: 6.31 µM [inhibitor, single point]"
